Each structure is given as a SMILES string. The list shows a part of the results. Further columns of the screen follow, without active or inactive calls. Compounds called inactive in the main read-out are mostly missing here. Potencies come from curve fits of mixed quality, noted in brackets.

A short description of the experiment: Cell signaling CRE-BLA (Fsk stim). The conditions noted are these: CHO CRE-bla reporter (cAMP response element driving beta-lactamase), forskolin EC10, beta-lactamase ratio; measured here: 460 nm blue channel. The method in brief:
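Modulation of forskolin signalling: compounds in titration series added with EC10 NKH 477 to CHO cells carrying a CRE-driven beta-lactamase reporter, 3 h, 37C. CCF4 FRET ratio (460/530 nm, ex 405 nm) gives %activity and AC50.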
Consider `Cc1cccc(-c2cc3nc4c(c(N5CCOCC5)n3n2)CCCC4)c1`, for which the AC50 is 2 µM [rising, full curve, poor fit].
As to `CC(C)(C)NC(=O)Cn1nnc(-c2ccc(Cl)cc2)n1`, the concentration at half-maximal activity (AC50) was 5.01 µM [falling, single point].
For `O=c1oc2c(CN3CCOCC3)c(O)ccc2c2c1CCCC2` the value was 12.6 µM [rising, partial curve]; for `CC(=O)N1C=CN(C(C)=O)C(c2cn(C)c3ccccc23)C1c1cn(C)c2ccccc12` (configuration not stated), 1 µM [falling, partial curve]; for `CC1(C)OC(=O)C2(Cc3ccccc3N3CCCCC32)C(=O)O1` (configuration not stated), 0.1 µM [falling, full curve].
For `CCNc1nc(NCc2ccccc2)nc(Oc2ccc(=O)[nH]n2)n1`, the AC50 is 0.631 µM [rising, full curve, poor fit].
To `O=C(CN(C(=O)CCC(=O)Nc1nccs1)c1ccc(F)cc1)NCc1ccco1` belongs 0.126 µM [falling, full curve, poor fit]; to `CN1CCN(c2ccnc(-c3ccc(N(C)C)cc3)n2)CC1`, 10 µM [rising, partial curve].
Turning to `CN(C)c1ncc2nc(-c3ccc(Cl)cc3)c(=O)n(Cc3cccs3)c2n1`, the half-maximal activity concentration (AC50) was 0.501 µM [rising, full curve].
For the molecule `O=c1c(-c2nc3ccccc3o2)c2oc3ccccc3n2c2ccccc12`, the AC50 was 3.16 µM [rising, partial curve].
In the case of `CC1CCN(S(=O)(=O)c2cccc(-c3nnc(-c4cccnc4)o3)c2)CC1`, the AC50 is 10 µM [rising, partial curve].
For `CC(=O)OCC(=O)[C@@]1(O)CC[C@@H]2[C@H]3CCC4=CC(=O)CC[C@]4(C)[C@]3(F)[C@@H](O)C[C@@]21C`, the AC50 was 12.6 µM [falling, single point].
On to `O=C(c1oc(=O)c2ccccc2c1-c1ccccc1)N1CCOCC1`, for which the AC50 is 0.126 µM [rising, partial curve].
For `O=C(O)c1ccccc1-c1ccccc1C(=O)Nc1ccc2c(c1)Cc1cc(F)ccc1-2` the value was 1 µM [falling, partial curve].
Regarding `O=C(NC1CCCCCCC1)C1CCN(S(=O)(=O)N2CCCC2)CC1`, the concentration at half-maximal activity (AC50) was 7.94 µM [falling, partial curve].
With `CCn1c(SCC(N)=O)nc2c(c1=O)C1(CCCC1)Cc1ccccc1-2`, the half-maximal activity concentration (AC50) is 1.58 µM [rising, partial curve].
With `CN(C)c1ccc(CNn2cnnc2SCc2ccc(F)cc2)cc1`, the half-maximal activity concentration (AC50) is 6.31 µM [falling, partial curve].
Turning to `COc1ccccc1NC(=O)CSc1nc2sc(C)c(C)c2c(=O)n1Cc1ccco1`, the AC50 is 5.01 µM [rising, full curve].
For `Cc1nc(-c2ccccc2O)n(S(=O)(=O)N(C)C)n1` the value was 5.01 µM [falling, single point]; for `COc1ccc2[nH]c(=O)c(CN(C(=O)c3ccncc3)C(C)(C)C)cc2c1`, 10 µM [rising, single point]; for `Cc1ccc(C2NC(=O)c3c(sc4c3CCN(C)C4)N2)s1` (configuration not stated), 10 µM [rising, partial curve].
For `CN(C)c1ccc(/C=N/n2ncc3ccccc32)cc1` the value was 10 µM [rising, partial curve]; for `O=C(NC1(C(F)(F)F)NC(=O)N(C2CCCCC2)C1=O)c1cccs1` (configuration not stated), 10 µM [falling, partial curve].
For the molecule `COc1ccc(-n2c(=O)c(-c3ccc(Cl)cc3)nc3cnc(N4CCNCC4)nc32)cc1`, the AC50 is 3.16 µM [rising, full curve].
As to `COc1c(C)cc(Br)cc1C(=O)NCc1cccnc1`, the half-maximal activity concentration (AC50) is 0.0316 µM [rising, full curve].
As to `COC(=O)[C@@]1(Cc2ccc(OC)cc2)[C@H]2c3cc(C(=O)N(C)C)n(Cc4ccc(OC)c(OC)c4)c3C[C@H]2CN1C(=O)c1ccccc1`, the concentration at half-maximal activity (AC50) is 6.31 µM [rising, partial curve].
In the case of `Cc1noc(C)c1COC(=O)c1ccc(-c2nc3ccccc3s2)s1`, the AC50 is 0.1 µM [rising, full curve, poor fit].
As for `CCCCn1c(SCC(=O)NCC2CCCO2)nc2ccc(N3CCOCC3)cc2c1=O` (configuration not stated), the half-maximal activity concentration (AC50) was 7.94 µM [rising, partial curve].
As to `O=C(O)C=C1C2CC3CC(C2)CC1C3`, the AC50 was 1 µM [falling, partial curve, poor fit].
Turning to `O=C(COc1ccc(Cl)cc1Cl)N1CCCCCC1`, the AC50 was 0.398 µM [rising, full curve].
For `COc1ccc(NC(=O)c2ccco2)cc1NC(=O)c1ccco1` the value was 12.6 µM [rising, single point]; for `COc1ccc(C2=Nn3c(nnc3-c3ccc(OC)cc3)SC2)cc1`, 12.6 µM [rising, partial curve].
As for `CCOC(=O)c1nnsc1NC(C)=O`, the AC50 is 0.126 µM [falling, full curve].
For `COC(=O)Nc1nnc(SCc2ccc(C)cc2)s1` the value was 5.01 µM [rising, partial curve].
`COc1ccc(-c2nc3cnc(N4CCNCC4)nc3n(-c3ccc(OC)cc3)c2=O)cc1`: the half-maximal activity concentration (AC50) was 2.51 µM [rising, full curve].
As for `CCOc1ccc(-c2noc(-c3cccnc3)n2)cc1OC`, the AC50 is 2 µM [rising, single point].
For the molecule `Cc1ccc(C(C)C)c(OCc2nnc3n2CCCCC3)c1`, the AC50 is 10 µM [rising, partial curve].
Take `CN(C(=O)COC(=O)c1nc(-c2ccccc2)n(-c2ccccc2)n1)C1CCS(=O)(=O)C1` (configuration not stated): the AC50 is 0.794 µM [falling, partial curve, poor fit].
To `c1ccc2c(NCCN3CCOCC3)nc(-c3ccc4c(c3)OCO4)nc2c1` belongs 10 µM [rising, partial curve]; to `CC1CN(C2CCCCC2)c2nc3c(c(=O)n(C)c(=O)n3C)n2C1` (configuration not stated), 12.6 µM [rising, single point]; to `CC(C)N(C(=O)COC(=O)c1ccccc1C(=O)N1CCN(c2ccc(F)cc2)CC1)C(C)C`, 1.58 µM [falling, partial curve].
Consider `Cc1c(C(=O)O)oc2c1ccc1ccccc12`, for which the AC50 is 1.58 µM [falling, single point].
As to `Cc1cc(C)n(-c2nc(SCC(=O)Nc3nccs3)c3c4c(sc3n2)COC(C)(C)C4)n1`, the concentration at half-maximal activity (AC50) is 2.51 µM [rising, single point].
Take `COc1ccc(-c2csc(C3=C(O)CN(Cc4ccc(S(N)(=O)=O)cc4)C3=N)n2)cc1OC`: the concentration at half-maximal activity (AC50) was 0.0794 µM [falling, partial curve, poor fit].
For the molecule `CCOC(=O)N1CCC(Nc2ccc3nnc(-c4ccccc4)n3n2)CC1`, the half-maximal activity concentration (AC50) is 10 µM [rising, partial curve].
As to `COC(=O)c1ccc(-c2nn(C)c(=O)c3ccccc23)cc1`, the AC50 was 5.01 µM [rising, partial curve].
For `O=C(C1Cc2ccccc2CN1S(=O)(=O)c1cccs1)N1CCCCCC1` (configuration not stated) the value was 0.00316 µM [falling, full curve, poor fit]; for `COc1ccc(C(=O)NCC(=O)OC2CCCCC2=O)cc1` (configuration not stated), 5.01 µM [falling, partial curve]; for `COc1ccc(-n2c(=O)c(C)nc3cnc(N4CCOCC4)nc32)cc1`, 12.6 µM [rising, partial curve].
With `CN1CC(=O)NC1=NC(=O)c1ccc(Cl)c(S(=O)(=O)N2CCCCCC2)c1`, the half-maximal activity concentration (AC50) is 5.01 µM [falling, single point].
For `CCN(CC)c1ccc2c(c1)C(=O)N(C)C2=O`, the AC50 is 10 µM [rising, partial curve].
`Clc1ccc(Cc2nn3c(Cn4nnc5ccccc54)nnc3s2)cc1`: the AC50 was 12.6 µM [rising, single point].
To `CC(C)c1ccc2c([Si](C)(C)C)c3c(nc2c1)-c1cccc(=O)n1C3` belongs 0.0631 µM [rising, full curve, poor fit]; to `Nc1cccc(-c2nc3ccc(N)cc3s2)c1`, 15.8 µM [rising, single point]; to `O=C(O)CCCCCC[C@@H]1C(=O)NC(=O)N1CC[C@@H](O)C1CCCCC1`, 12.6 µM [rising, partial curve].
As to `CCOC(=O)c1c(N)sc(C(=O)N2CCCCCC2)c1C`, the half-maximal activity concentration (AC50) was 10 µM [rising, partial curve].
`CC1=C(C)CS(=O)N(S(=O)(=O)c2ccc(Cl)cc2)C1` (configuration not stated): the AC50 was 10 µM [falling, partial curve].
Take `O=C(c1cc(S(=O)(=O)N2CCCCC2)ccc1F)N1CCCCC1`: the AC50 is 5.01 µM [falling, single point].
With `CN1/C(=N\O)c2cccc3cccc1c23`, the AC50 is 12.6 µM [rising, partial curve].
As for `Cc1ccc(-n2c(SCC(=O)NCc3ccco3)nnc2-c2cccnc2)c(C)c1`, the concentration at half-maximal activity (AC50) was 12.6 µM [falling, single point].
For `O=C(Nc1ccc(F)cc1)Nc1ccc(Cl)cn1` the value was 12.6 µM [falling, partial curve].
In the case of `CCOC(=O)c1csc(NC(=O)CSc2nnnn2CC)n1`, the half-maximal activity concentration (AC50) is 5.01 µM [rising, single point].
With `CCCC[C@H]1C[C@@H]1[C@@H]1N(C(C)=O)[C@H](c2cccc(OC)c2)CC12CC2`, the AC50 is 25.1 µM [rising, single point].
Consider `Cc1ccc(-c2c(C#N)c(N)nc3c2CCCCC3)o1`, for which the AC50 was 3.16 µM [rising, full curve].
Take `COc1ccc(N2CCN(C(=O)CSc3nc4cc(OC)c(OC)cc4cc3C#N)CC2)cc1`: the AC50 was 5.01 µM [rising, partial curve].
With `O=C(NCCN1CCN(c2ccccc2)CC1)C1CCN(S(=O)(=O)c2cccs2)CC1`, the concentration at half-maximal activity (AC50) was 0.126 µM [falling, partial curve].
As to `Nc1[nH]ncc1C(=O)Nc1cccc(C(F)(F)F)c1`, the AC50 is 10 µM [falling, partial curve, poor fit].

As usually defined, the AC50 is the concentration at which the activity in the assay is half-maximal.

These data come from PubChem BioAssay AID662 (National Center for Advancing Translational Sciences (NCATS), 2007).
